Experimental data: paper PMC5038147
No constants are given. Whether binding was seen depends on the method and setting. In cells and extracts the contact can be indirect. Some entries that bind do so weakly or less than the wild type. Where a sequence is shown, tags or fusion partners need not be part of it. Blank lines part the entries; values can stand above or below the molecule they belong to.

The chains behind the UniProt entries cited, without tags or fusion partners.
UniProt Q9UGP4: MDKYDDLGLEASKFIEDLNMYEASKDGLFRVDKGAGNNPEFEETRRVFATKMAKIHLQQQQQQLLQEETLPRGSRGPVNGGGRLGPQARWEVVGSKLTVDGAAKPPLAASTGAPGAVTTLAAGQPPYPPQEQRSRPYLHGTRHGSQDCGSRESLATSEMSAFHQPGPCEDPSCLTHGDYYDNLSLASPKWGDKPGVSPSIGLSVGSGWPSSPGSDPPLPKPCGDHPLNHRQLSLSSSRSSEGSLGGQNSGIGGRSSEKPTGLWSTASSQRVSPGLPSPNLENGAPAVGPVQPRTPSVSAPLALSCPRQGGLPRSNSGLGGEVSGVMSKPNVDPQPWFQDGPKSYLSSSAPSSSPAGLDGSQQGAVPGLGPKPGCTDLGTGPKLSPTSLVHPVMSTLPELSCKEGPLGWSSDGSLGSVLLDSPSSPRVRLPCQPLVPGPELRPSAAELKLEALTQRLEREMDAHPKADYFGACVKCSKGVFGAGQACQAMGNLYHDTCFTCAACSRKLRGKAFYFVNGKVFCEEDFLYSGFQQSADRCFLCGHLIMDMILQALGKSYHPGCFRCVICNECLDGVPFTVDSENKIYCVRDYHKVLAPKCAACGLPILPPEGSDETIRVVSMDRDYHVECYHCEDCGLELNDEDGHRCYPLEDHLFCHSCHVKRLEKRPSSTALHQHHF
UniProt P46937: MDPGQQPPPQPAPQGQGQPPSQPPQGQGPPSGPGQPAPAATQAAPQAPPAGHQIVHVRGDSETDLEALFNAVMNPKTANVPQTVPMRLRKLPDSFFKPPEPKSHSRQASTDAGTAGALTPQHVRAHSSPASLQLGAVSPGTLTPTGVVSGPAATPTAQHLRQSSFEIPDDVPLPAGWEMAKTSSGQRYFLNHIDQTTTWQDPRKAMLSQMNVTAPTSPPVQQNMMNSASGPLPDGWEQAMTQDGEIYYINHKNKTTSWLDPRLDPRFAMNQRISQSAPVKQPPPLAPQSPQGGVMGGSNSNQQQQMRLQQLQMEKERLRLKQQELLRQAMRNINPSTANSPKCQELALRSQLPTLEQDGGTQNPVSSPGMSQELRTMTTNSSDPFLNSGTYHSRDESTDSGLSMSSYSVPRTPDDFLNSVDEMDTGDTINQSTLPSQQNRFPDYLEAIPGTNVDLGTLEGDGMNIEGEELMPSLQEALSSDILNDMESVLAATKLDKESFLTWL

Legend:
[1] = biological target: human LIMD1 (wild type, transfected) (human) (UniProt Q9UGP4); experiment: co-IP; HEK293T cells transfected with LIMD1 (wild type or LIM domain deletion mutant) and one individual Hippo component or YAP; LIMD1 immunoprecipitated, bound products Western blotted; IP buffer 10 mM HEPES pH 7.4, 150 mM NaCl, 10% glycerol, 1% NP-40 or CHAPS, 4°C
[2] = biological target: T1, LATS2 (epitope-tagged, transfected) (UniProt Q9NRM7); experiment: co-IP; HEK293T cells transfected with epitope-tagged LATS2 and one other protein (MOB1A without or with increasing amounts of LIMD1; or YAP alone); LATS2 immunoprecipitated
T1 sequence: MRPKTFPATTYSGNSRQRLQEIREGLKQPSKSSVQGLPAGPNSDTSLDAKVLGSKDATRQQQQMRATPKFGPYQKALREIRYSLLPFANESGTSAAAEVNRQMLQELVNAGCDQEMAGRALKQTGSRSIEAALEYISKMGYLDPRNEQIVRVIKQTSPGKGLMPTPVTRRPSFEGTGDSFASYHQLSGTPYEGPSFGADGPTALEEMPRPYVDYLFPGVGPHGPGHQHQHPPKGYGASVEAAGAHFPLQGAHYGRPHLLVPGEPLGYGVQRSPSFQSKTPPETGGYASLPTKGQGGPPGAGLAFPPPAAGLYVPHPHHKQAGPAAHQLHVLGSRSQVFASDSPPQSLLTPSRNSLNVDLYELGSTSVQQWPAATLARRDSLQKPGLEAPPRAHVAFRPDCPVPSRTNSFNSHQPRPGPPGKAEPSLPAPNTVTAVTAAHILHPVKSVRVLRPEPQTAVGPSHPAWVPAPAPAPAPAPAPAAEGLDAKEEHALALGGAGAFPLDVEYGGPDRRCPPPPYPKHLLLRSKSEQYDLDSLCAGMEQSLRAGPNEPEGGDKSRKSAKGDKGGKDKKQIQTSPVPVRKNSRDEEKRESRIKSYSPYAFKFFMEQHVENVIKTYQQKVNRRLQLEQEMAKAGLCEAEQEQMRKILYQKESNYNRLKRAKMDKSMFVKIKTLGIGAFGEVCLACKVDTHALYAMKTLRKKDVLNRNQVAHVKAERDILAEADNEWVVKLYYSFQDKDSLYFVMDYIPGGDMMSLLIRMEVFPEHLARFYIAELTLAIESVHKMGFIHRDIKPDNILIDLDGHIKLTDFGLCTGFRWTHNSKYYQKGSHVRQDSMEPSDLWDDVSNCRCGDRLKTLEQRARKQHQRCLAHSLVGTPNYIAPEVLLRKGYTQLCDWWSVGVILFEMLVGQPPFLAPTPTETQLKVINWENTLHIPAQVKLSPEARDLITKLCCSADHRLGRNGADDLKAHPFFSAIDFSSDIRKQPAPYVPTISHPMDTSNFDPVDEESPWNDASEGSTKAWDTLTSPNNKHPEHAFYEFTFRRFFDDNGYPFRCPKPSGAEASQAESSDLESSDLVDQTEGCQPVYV

[3] = biological target: T2, MST2 (epitope-tagged, transfected) (UniProt Q13188); experiment: co-IP; HEK293T cells transfected with all four epitope-tagged Hippo core kinase complex components (MST2, WW45, LATS2, wt MOB1A), with or without LIMD1 or hLIMD1 mutants, with or without YAP; MST2 immunoprecipitated
T2 sequence: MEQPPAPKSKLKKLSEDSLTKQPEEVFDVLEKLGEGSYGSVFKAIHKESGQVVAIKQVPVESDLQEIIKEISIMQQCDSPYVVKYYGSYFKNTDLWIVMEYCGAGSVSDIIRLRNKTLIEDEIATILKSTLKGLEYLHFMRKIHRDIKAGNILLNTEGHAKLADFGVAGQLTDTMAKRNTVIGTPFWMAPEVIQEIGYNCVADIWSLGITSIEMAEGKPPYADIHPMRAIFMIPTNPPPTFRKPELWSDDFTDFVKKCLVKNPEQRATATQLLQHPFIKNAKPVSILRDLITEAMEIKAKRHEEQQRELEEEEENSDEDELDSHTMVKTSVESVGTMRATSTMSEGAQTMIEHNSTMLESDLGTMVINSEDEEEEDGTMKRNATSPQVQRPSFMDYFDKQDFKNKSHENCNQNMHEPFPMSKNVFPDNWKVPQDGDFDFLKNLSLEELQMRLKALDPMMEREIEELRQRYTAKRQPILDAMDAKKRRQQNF

- binding [1]: no binding
Molecule: YAP (transfected) (from UniProt P46937 1-504)

- binding [2]: binds
- binding [3]: binds
- binding [1]: no binding
B1: MOB1A (wild type, epitope-tagged, transfected) (protein, UniProt Q9H8S9 1-216)
chain: MSFLFSSRSSKTFKPKKNIPEGSHQYELLKHAEATLGSGNLRQAVMLPEGEDLNEWIAVNTVDFFNQINMLYGTITEFCTEASCPVMSAGPRYEYHWADGTNIKKPIKCSAPKYIDYLMTWVQDQLDDETLFPSKIGVPFPKNFMSVAKTILKRLFRVYAHIYHQHFDSVMQLQEEAHLNTSFKHFIFFVQEFNLIDRRELAPLQELIEKLGSKDR
